Measurements reported in PubChem BioAssay AID1259254 (NCATS, 2017)

- Assay: 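Genome-wide screen for genes that prevent DNA re-replication in cancer cells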 (primary screen)
- System: human HCT116 colorectal cancer cells
- Knock-down reagent: single siRNA against human genes
- Duration: 3 days
- Detection: 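Imaged Hoechst DNA stain sorts each cell into a cycle phase by DNA amount; per plate, G2 fraction set to 0% for non-targeting and 100% for GMNN siRNA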
- Scale: G2 robust z-score and G2 cells, % of GMNN control: higher = more G2 cells, more excess DNA replication
- Active means: 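Active siRNAs have a G2 robust z of 5 or more median absolute deviations over the median, which in these data means about 38% or higher of GMNN control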
Here is an unselected part of about 59,000 deposited reagents. In the full data, about 1,550 (2.6%) were called active. 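G2 share is only a proxy for re-replication; each gene was hit by three separate siRNAs, and active genes were retested.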 Entries without a mark were called inactive. Reagents against one gene are numbered here. Further read-outs or replicates are left out here. No sequences are given here. The record does not give: the amount of reagent.

NWD1 (NACHT and WD repeat domain containing 1) #1 gave G2 robust z-score 1.63; G2 cells, % of GMNN control 14.5.
After knock-down of NWD1 (NACHT and WD repeat domain containing 1) #2 the results were G2 robust z-score 1.79; G2 cells, % of GMNN control 15.6.
NWD1 (NACHT and WD repeat domain containing 1) #3 gave G2 robust z-score -0.761; G2 cells, % of GMNN control -2.38.
PROB1 (proline rich basic protein 1) #1 gave G2 robust z-score 1.91; G2 cells, % of GMNN control 16.4.
PROB1 (proline rich basic protein 1) #2 scored G2 robust z-score 2.41; G2 cells, % of GMNN control 19.9.
PROB1 (proline rich basic protein 1) #3 scored G2 robust z-score -0.652; G2 cells, % of GMNN control -1.62.
With knock-down of SETX (senataxin) #1, the record shows G2 robust z-score -0.199; G2 cells, % of GMNN control 1.57.
After knock-down of SETX (senataxin) #2, the record shows G2 robust z-score 0.0929; G2 cells, % of GMNN control 3.62.
Against SETX (senataxin) #3 the deposit lists G2 robust z-score -0.144; G2 cells, % of GMNN control 1.95.
With knock-down of PSMB5 (proteasome 20S subunit beta 5) #1 the results were G2 robust z-score 3.57; G2 cells, % of GMNN control 28.1.
After knock-down of PSMB5 (proteasome 20S subunit beta 5) #2, the record shows G2 robust z-score 8.02 (active); G2 cells, % of GMNN control 59.4.
For PSMB5 (proteasome 20S subunit beta 5) #3, the entry reads G2 robust z-score 3.58; G2 cells, % of GMNN control 28.2.

Reformatted: results already given
| gene symbol | reagent | G2 robust z-score | G2 cells, % of GMNN control |
| --- | --- | --- | --- |
| PROB1 (proline rich basic protein 1) | 3 | -0.652 | -1.62 |
| SETX (senataxin) | 1 | -0.199 | 1.57 |

More records follow:
After knock-down of FUBP1 (far upstream element binding protein 1) #1, the screen gave G2 robust z-score 1.11; G2 cells, % of GMNN control 10.8.
Silencing of FUBP1 (far upstream element binding protein 1) #2 resulted in: G2 robust z-score 3.32; G2 cells, % of GMNN control 26.3.
With knock-down of FUBP1 (far upstream element binding protein 1) #3 the results were G2 robust z-score -0.561; G2 cells, % of GMNN control -0.982.
Silencing of HHIP (hedgehog interacting protein) #1 came out at: G2 robust z-score -1.75; G2 cells, % of GMNN control -9.34.
Against HHIP (hedgehog interacting protein) #2 the deposit lists G2 robust z-score 2.74; G2 cells, % of GMNN control 22.3.
For HHIP (hedgehog interacting protein) #3, the values are G2 robust z-score -0.867; G2 cells, % of GMNN control -3.13.
Against RAB14 (RAB14, member RAS oncogene family) #1 the deposit lists G2 robust z-score -0.908; G2 cells, % of GMNN control -3.42.
RAB14 (RAB14, member RAS oncogene family) #2 scored G2 robust z-score 0.0964; G2 cells, % of GMNN control 3.65.
Depletion of RAB14 (RAB14, member RAS oncogene family) #3 gave: G2 robust z-score 1.39; G2 cells, % of GMNN control 12.8.
Against MLX (MAX dimerization protein MLX) #1 the deposit lists G2 robust z-score -0.317; G2 cells, % of GMNN control 0.74.
MLX (MAX dimerization protein MLX) #2 gave G2 robust z-score -0.731; G2 cells, % of GMNN control -2.18.
After knock-down of MLX (MAX dimerization protein MLX) #3, the record shows G2 robust z-score -0.75; G2 cells, % of GMNN control -2.31.
